Assay results: patent US10556943B2, “HLA-DR binding peptides and their uses” (priority 2007, dated 2020)

Test system: 15 different HLA-DR molecules
Assay: Binding assays targeting 15 different HLA-DR molecules (breadth of binding)
Design: species or system human
Conditions: number of the 15 HLA-DR molecules bound

Structure (SMILES): CC[C@H](C)[C@H](NC(=O)[C@H](Cc1c[nH]cn1)NC(=O)[C@H](CC(C)C)NC(=O)[C@H](CO)NC(=O)[C@H](Cc1ccc(O)cc1)NC(=O)[C@H](CC(C)C)NC(=O)[C@H](Cc1c[nH]cn1)NC(=O)[C@H](CCC(=O)O)NC(=O)[C@H](CC(C)C)NC(=O)[C@@H]1CCCN1C(=O)CNC(=O)[C@H](CCCNC(=N)N)NC(=O)[C@@H](N)CCC(=O)O)C(=O)N1CCC[C@H]1C(=O)N[C@@H](CC(N)=O)C(=O)O [Peptide 9019.0190]
- Total XRN: 8
